In the supplement of paper PMC8728848:
Some of the results follow.

What was measured:
Test in all cases: glycan array binding signal (z-score within array); higher = stronger binding
Conditions in all cases: glycan notation: IUPAC condensed, linker removed
Fuc(a1-2)Gal = target: Fuc(a1-2)Gal
Outline: (§1)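 Glycan array data were curated from 3228 arrays in the Consortium for Functional Glycomics database and kept only where the protein sequence was available. Glycan names were converted to IUPAC-condensed notation, and columns mapping to the same glycan were averaged. The binding signal is a within-array Z-score, averaged across arrays of the same protein sequence at different concentrations or buffers and across linkers. Negative Z-scores can be read as non-binding.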

Fuc(a1-2)Gal(b1-3)GalNAc = target: Fuc(a1-2)Gal(b1-3)GalNAc
Outline: as §1

[1] = target: Fuc(a1-2)Gal(b1-3)GalNAc(a1-3)[Fuc(a1-2)]Gal(b1-4)Glc
Outline: as §1

[2] = target: Fuc(a1-2)Gal(b1-3)GalNAc(a1-3)[Fuc(a1-2)]Gal(b1-4)GlcNAc
Outline: as §1

[3] = target: Fuc(a1-2)Gal(b1-3)GalNAc(b1-3)Gal
Outline: as §1

[4] = target: Fuc(a1-2)Gal(b1-3)GalNAc(b1-3)Gal(a1-4)Gal(b1-4)Glc
Outline: as §1

[5] = target: Fuc(a1-2)Gal(b1-3)GalNAc(b1-4)[Neu5Ac(a2-3)]Gal(b1-4)Glc
Outline: as §1

Fuc(a1-2)Gal(b1-3)GlcNAc = target: Fuc(a1-2)Gal(b1-3)GlcNAc
Outline: as §1

[6] = target: Fuc(a1-2)Gal(b1-3)GlcNAc(b1-2)Man(a1-3)[Fuc(a1-2)Gal(b1-3)GlcNAc(b1-2)Man(a1-6)]Man(b1-4)GlcNAc(b1-4)GlcNAc
Outline: as §1

[7] = target: Fuc(a1-2)Gal(b1-3)GlcNAc(b1-2)Man(a1-3)[Fuc(a1-2)Gal(b1-3)GlcNAc(b1-2)Man(a1-6)]Man(b1-4)GlcNAc(b1-4)[Fuc(a1-6)]GlcNAc
Outline: as §1

[8] = target: Fuc(a1-2)Gal(b1-3)GlcNAc(b1-3)Gal(b1-4)Glc
Outline: as §1

[9] = target: Fuc(a1-2)Gal(b1-3)GlcNAc(b1-3)GalNAc
Outline: as §1

[10] = target: Fuc(a1-2)Gal(b1-3)GlcNAc(b1-3)[Fuc(a1-2)Gal(b1-3)GlcNAc(b1-6)]GalNAc
Outline: as §1

[11] = target: Fuc(a1-2)Gal(b1-3)GlcNAc(b1-3)[Gal(b1-4)GlcNAc(b1-6)]Gal(b1-4)Glc
Outline: as §1

[12] = target: Fuc(a1-2)Gal(b1-3)GlcNAc(b1-3)[Neu5Ac(a2-6)Gal(b1-4)GlcNAc(b1-6)]Gal(b1-4)Glc
Outline: as §1

[13] = target: Fuc(a1-2)Gal(b1-3)GlcNAc6S
Outline: as §1

[14] = target: Fuc(a1-2)Gal(b1-3)[Fuc(a1-4)]GlcNAc
Outline: as §1

[15] = target: Fuc(a1-2)Gal(b1-3)[Fuc(a1-4)]GlcNAc(b1-2)Man(a1-3)[Fuc(a1-2)Gal(b1-3)[Fuc(a1-4)]GlcNAc(b1-2)Man(a1-3)]Man(b1-4)GlcNAc(b1-4)GlcNAc
Outline: as §1

[16] = target: Fuc(a1-2)Gal(b1-3)[Fuc(a1-4)]GlcNAc(b1-2)Man(a1-3)[Fuc(a1-2)Gal(b1-3)[Fuc(a1-4)]GlcNAc(b1-2)Man(a1-6)]Man(b1-4)GlcNAc(b1-4)[Fuc(a1-6)]GlcNAc(b1-4)[Fuc(a1-6)]GlcNAc
Outline: as §1

[17] = target: Fuc(a1-2)Gal(b1-3)[Fuc(a1-4)]GlcNAc(b1-3)[Fuc(a1-3)[Gal(b1-4)]GlcNAc(b1-6)]Gal(b1-4)Glc
Outline: as §1

[18] = target: Fuc(a1-2)Gal(b1-3)[Fuc(a1-4)]GlcNAc(b1-3)[Gal(b1-4)GlcNAc(b1-6)]Gal(b1-4)Glc
Outline: as §1

[19] = target: Fuc(a1-2)Gal(b1-4)Fuc(a1-3)]GlcNAc(b1-2)Man(a1-3)[Fuc(a1-2)Gal(b1-4)[Fuc(a1-3)]GlcNAc(b1-2)Man(a1-6)]Man(b1-4)GlcNAc(b1-4)GlcNAc
Outline: as §1

Fuc(a1-2)Gal(b1-4)Glc = target: Fuc(a1-2)Gal(b1-4)Glc
Outline: as §1

Fuc(a1-2)Gal(b1-4)Glc6S = target: Fuc(a1-2)Gal(b1-4)Glc6S
Outline: as §1

Fuc(a1-2)Gal(b1-4)GlcNAc = target: Fuc(a1-2)Gal(b1-4)GlcNAc
Outline: as §1

[20] = target: Fuc(a1-2)Gal(b1-4)GlcNAc(b1-2)Man
Outline: as §1

[21] = target: Fuc(a1-2)Gal(b1-4)GlcNAc(b1-2)Man(a1-3)[Fuc(a1-2)Gal(b1-4)GlcNAc(b1-2)Man(a1-6)]Man(b1-4)GlcNAc(b1-4)GlcNAc
Outline: as §1

[22] = target: Fuc(a1-2)Gal(b1-4)GlcNAc(b1-2)Man(a1-3)[Fuc(a1-2)Gal(b1-4)GlcNAc(b1-2)Man(a1-6)]Man(b1-4)GlcNAc(b1-4)[Fuc(a1-6)]GlcNAc
Outline: as §1

[23] = target: Fuc(a1-2)Gal(b1-4)GlcNAc(b1-2)[Fuc(a1-2)Gal(b1-4)GlcNAc(b1-4)]Man(a1-3)[Fuc(a1-2)Gal(b1-4)GlcNAc(b1-2)Man(a1-6)]Man(b1-4)GlcNAc(b1-4)GlcNAc
Outline: as §1

[24] = target: Fuc(a1-2)Gal(b1-4)GlcNAc(b1-3)Gal(b1-4)GlcNAc
Outline: as §1

B1: AT5G17240(42) (Arabidopsis thaliana), Q6NQJ8 (protein)
chain: MDLEHQTMETFLRWAAEIGISDSIDSSRFRDSCLGHSLSVSDFPDAGGRGLGAARELKKGELVLKVPRKALMTTESIIAKDLKLSDAVNLHNSLSSTQILSVCLLYEMSKEKKSFWYPYLFHIPRDYDLLATFGNFEKQALQVEDAVWATEKATAKCQSEWKEAGSLMKELELKPKFRSFQAWLWASATISSRTLHVPWDSAGCLCPVGDLFNYDAPGDYSNTPQGPESANNVEEAGLVVETHSERLTDGGFEEDVNAYCLYARRNYQLGEQVLLCYGTYTNLELLEHYGFMLEENSNDKVFIPLETSLFSLASSWPKDSLYIHQDGKLSFALISTLRLWLIPQSQRDKSVMRLVYAGSQISVKNEILVMKWMSEKCGSVLRDLPTSVTEDTVLLHNIDKLQDPELRLEQKETEAFGSEVRAFLDANCLWDVTVLSGKPIEFSRKTSRMLSKWRWSVQWRLSYKRTLADCISYCNEKMNNLLGTQDRLRDL
glycan array binding signal (z-score) (Fuc(a1-2)Gal): -0.054 | glycan array binding signal (z-score) (Fuc(a1-2)Gal(b1-3)GalNAc): -0.459 | glycan array binding signal (z-score) [1]: 0.123 | glycan array binding signal (z-score) [2]: -0.485 | glycan array binding signal (z-score) [3]: 0.427 | glycan array binding signal (z-score) [4]: 0.174 | glycan array binding signal (z-score) [5]: 0.062 | glycan array binding signal (z-score) (Fuc(a1-2)Gal(b1-3)GlcNAc): -0.094 | glycan array binding signal (z-score) [6]: -0.113 | glycan array binding signal (z-score) [7]: 0.063 | glycan array binding signal (z-score) [8]: 0.124 | glycan array binding signal (z-score) [9]: 0.114 | glycan array binding signal (z-score) [10]: 0.001 | glycan array binding signal (z-score) [11]: 0.636 | glycan array binding signal (z-score) [12]: -0.128 | glycan array binding signal (z-score) [13]: 0.337 | glycan array binding signal (z-score) [14]: -0.263 | glycan array binding signal (z-score) [15]: -0.056 | glycan array binding signal (z-score) [16]: 0.42 | glycan array binding signal (z-score) [17]: 0.294 | glycan array binding signal (z-score) [18]: -0.39 | glycan array binding signal (z-score) [19]: -0.164 | glycan array binding signal (z-score) (Fuc(a1-2)Gal(b1-4)Glc): -0.258 | glycan array binding signal (z-score) (Fuc(a1-2)Gal(b1-4)Glc6S): 0.452 | glycan array binding signal (z-score) (Fuc(a1-2)Gal(b1-4)GlcNAc): -0.267 | glycan array binding signal (z-score) [20]: -0.706 | glycan array binding signal (z-score) [21]: -0.437 | glycan array binding signal (z-score) [22]: -0.089 | glycan array binding signal (z-score) [23]: -0.468 | glycan array binding signal (z-score) [24]: -0.132
